# Laboratory results from PMC13323110.
# The chains behind the UniProt entries cited, without tags or fusion partners. Where a name states a change or a piece, a line headed by the entry shows the natural chain unless it says otherwise.
# UniProt P40120: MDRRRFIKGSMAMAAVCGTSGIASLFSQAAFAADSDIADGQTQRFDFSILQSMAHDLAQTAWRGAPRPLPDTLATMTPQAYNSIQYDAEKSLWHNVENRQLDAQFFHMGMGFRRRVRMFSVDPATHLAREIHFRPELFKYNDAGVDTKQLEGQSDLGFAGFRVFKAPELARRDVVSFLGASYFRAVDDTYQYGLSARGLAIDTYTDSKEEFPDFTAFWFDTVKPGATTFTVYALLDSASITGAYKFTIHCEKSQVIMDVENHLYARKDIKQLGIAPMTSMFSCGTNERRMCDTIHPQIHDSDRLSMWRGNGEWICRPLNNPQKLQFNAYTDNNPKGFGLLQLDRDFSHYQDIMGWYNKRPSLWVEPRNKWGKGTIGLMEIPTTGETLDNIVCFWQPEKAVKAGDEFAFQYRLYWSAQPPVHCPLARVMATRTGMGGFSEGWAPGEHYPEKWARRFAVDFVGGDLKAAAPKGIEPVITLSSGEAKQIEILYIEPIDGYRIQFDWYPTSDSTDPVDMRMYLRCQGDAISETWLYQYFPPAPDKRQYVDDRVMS
# These are yes or no findings as the source states them, for the method shown. Binding calls can cover weak binding; strength is not graded here. Where a sequence is shown, tags or fusion partners need not be part of it.
# Target: T1, E. coli TatC with C-terminal Twin-Strep tag, expressed from a tatABC plasmid (Escherichia coli) (UniProt P69423)
# T1 sequence: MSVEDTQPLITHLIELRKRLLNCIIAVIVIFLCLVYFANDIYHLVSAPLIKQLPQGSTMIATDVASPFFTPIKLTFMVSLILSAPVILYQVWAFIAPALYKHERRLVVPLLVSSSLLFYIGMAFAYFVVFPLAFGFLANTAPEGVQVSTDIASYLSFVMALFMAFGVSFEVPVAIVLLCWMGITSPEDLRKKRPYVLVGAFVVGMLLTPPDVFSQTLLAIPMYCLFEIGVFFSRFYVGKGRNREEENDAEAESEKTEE
# Assay: cryo-EM structure; complex assembled in vitro: Ulp1-cut His6-SUMO-MdoD or -CueO mixed with purified E. coli TatBC or TatABC complex overnight at 4 °C, SEC in 50 mM Tris pH 8.0, 200 mM NaCl, 1 mM EDTA, 0.02% GDN; excess substrate; both purified
substance,measurement,value
"E. coli MdoD, full length with its Tat signal peptide (from UniProt P40120)",binding,binds
